# The list shows a part of the results.
# Experiments:
# Assay in all cases: glycan array binding signal (z-score within array); higher = stronger binding
# Conditions in all cases: glycan notation: IUPAC condensed, linker removed
# [1] = molecular target: Neu5Ac(a2-3)Gal(b1-4)GlcNAc(b1-3)Gal(b1-4)GlcNAc(b1-2)Man(a1-3)[Neu5Ac(a2-3)Gal(b1-4)GlcNAc(b1-3)Gal(b1-4)GlcNAc(b1-2)Man(a1-6)]Man(b1-4)GlcNAc(b1-4)GlcNAc
# In short: (§1)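 The binding signal is a Z-score computed within each array and averaged over linkers. Arrays of the same protein sequence at different concentrations or buffers were also averaged together. Data originate from 3228 arrays in the Consortium for Functional Glycomics database, kept only where the protein sequence was available.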
# [2] = molecular target: Neu5Ac(a2-3)Gal(b1-4)GlcNAc(b1-3)Gal(b1-4)GlcNAc(b1-3)Gal(b1-4)GlcNAc
# In short: as §1
# [3] = molecular target: Neu5Ac(a2-3)Gal(b1-4)GlcNAc(b1-3)Gal(b1-4)GlcNAc(b1-3)Gal(b1-4)GlcNAc(b1-2)Man(a1-3)[Neu5Ac(a2-3)Gal(b1-4)GlcNAc(b1-3)Gal(b1-4)GlcNAc(b1-3)Gal(b1-4)GlcNAc(b1-2)Man(a1-6)]GalNAc
# In short: as §1
# [4] = molecular target: Neu5Ac(a2-3)Gal(b1-4)GlcNAc(b1-3)Gal(b1-4)GlcNAc(b1-3)GalNAc
# In short: as §1
# [5] = molecular target: Neu5Ac(a2-3)Gal(b1-4)GlcNAc(b1-3)Gal(b1-4)GlcNAc(b1-3)[Neu5Ac(a2-3)Gal(b1-4)GlcNAc(b1-3)Gal(b1-4)GlcNAc(b1-6)]GalNAc
# In short: as §1
# [6] = molecular target: Neu5Ac(a2-3)Gal(b1-4)GlcNAc(b1-3)Gal(b1-4)GlcNAc(b1-6)[Gal(b1-3)]GalNAc
# In short: as §1
# [7] = molecular target: Neu5Ac(a2-3)Gal(b1-4)GlcNAc(b1-3)Gal(b1-4)[Fuc(a1-3)]GlcNAc
# In short: as §1
# [8] = molecular target: Neu5Ac(a2-3)Gal(b1-4)GlcNAc(b1-3)GalNAc
# In short: as §1
# [9] = molecular target: Neu5Ac(a2-3)Gal(b1-4)GlcNAc(b1-3)[Neu5Ac(a2-3)Gal(b1-4)GlcNAc(b1-6)]GalNAc
# In short: as §1
# [10] = molecular target: Neu5Ac(a2-3)Gal(b1-4)GlcNAc(b1-6)GalNAc
# In short: as §1
# [11] = molecular target: Neu5Ac(a2-3)Gal(b1-4)GlcNAc(b1-6)[Gal(b1-3)]GalNAc
# In short: as §1
# [12] = molecular target: Neu5Ac(a2-3)Gal(b1-4)GlcNAc(b1-6)[Neu5Ac(a2-3)Gal(b1-3)]GalNAc
# In short: as §1
# [13] = molecular target: Neu5Ac(a2-3)Gal(b1-4)GlcNAc6S
# In short: as §1
# [14] = molecular target: Neu5Ac(a2-3)Gal(b1-4)[Fuc(a1-3)]GlcNAc
# In short: as §1
# [15] = molecular target: Neu5Ac(a2-3)Gal(b1-4)[Fuc(a1-3)]GlcNAc(b1-2)Man
# In short: as §1
# [16] = molecular target: Neu5Ac(a2-3)Gal(b1-4)[Fuc(a1-3)]GlcNAc(b1-3)Gal
# In short: as §1
# [17] = molecular target: Neu5Ac(a2-3)Gal(b1-4)[Fuc(a1-3)]GlcNAc(b1-3)Gal(b1-4)GlcNAc
# In short: as §1
# [18] = molecular target: Neu5Ac(a2-3)Gal(b1-4)[Fuc(a1-3)]GlcNAc(b1-3)Gal(b1-4)[Fuc(a1-3)]GlcNAc(b1-3)Gal(b1-4)[Fuc(a1-3)]GlcNAc
# In short: as §1
# [19] = molecular target: Neu5Ac(a2-3)Gal(b1-4)[Fuc(a1-3)]GlcNAc(b1-3)GalNAc
# In short: as §1
# [20] = molecular target: Neu5Ac(a2-3)Gal(b1-4)[Fuc(a1-3)]GlcNAc(b1-6)[Gal(b1-3)]GalNAc
# In short: as §1
# [21] = molecular target: Neu5Ac(a2-3)Gal(b1-4)[Fuc(a1-3)]GlcNAc(b1-6)[Neu5Ac(a2-3)Gal(b1-3)]GalNAc
# In short: as §1
# [22] = molecular target: Neu5Ac(a2-3)Gal(b1-4)[Fuc(a1-3)]GlcNAc6S
# In short: as §1
# [23] = molecular target: Neu5Ac(a2-3)Gal6S(b1-4)GlcNAc
# In short: as §1
# [24] = molecular target: Neu5Ac(a2-3)Gal6S(b1-4)[Fuc(a1-3)]GlcNAc
# In short: as §1
# [25] = molecular target: Neu5Ac(a2-3)GalNAc
# In short: as §1
# [26] = molecular target: Neu5Ac(a2-3)GalNAc(b1-4)GlcNAc
# In short: as §1
# [27] = molecular target: Neu5Ac(a2-3)[GalNAc(b1-4)]Gal(b1-4)Glc
# In short: as §1
# [28] = molecular target: Neu5Ac(a2-3)[GalNAc(b1-4)]Gal(b1-4)GlcNAc
# In short: as §1
# [29] = molecular target: Neu5Ac(a2-3)[GalNAc(b1-4)]Gal(b1-4)GlcNAc(b1-3)GalNAc
# In short: as §1
# [30] = molecular target: Neu5Ac(a2-3)[Neu5Ac(a2-6)]GalNAc
# In short: as §1
# [31] = molecular target: Neu5Ac(a2-6)Gal
# In short: as §1
# [32] = molecular target: Neu5Ac(a2-6)Gal(b1-3)GlcNAc(b1-3)[Gal(b1-4)GlcNAc(b1-6)]Gal(b1-4)Glc
# In short: as §1
# [33] = molecular target: Neu5Ac(a2-6)Gal(b1-4)Glc
# In short: as §1
# [34] = molecular target: Neu5Ac(a2-6)Gal(b1-4)GlcNAc
# In short: as §1
# [35] = molecular target: Neu5Ac(a2-6)Gal(b1-4)GlcNAc(b1-2)Man
# In short: as §1
# [36] = molecular target: Neu5Ac(a2-6)Gal(b1-4)GlcNAc(b1-2)Man(a1-3)Man(b1-4)GlcNAc(b1-4)GlcNAc
# In short: as §1
# [37] = molecular target: Neu5Ac(a2-6)Gal(b1-4)GlcNAc(b1-2)Man(a1-3)[Gal(b1-4)GlcNAc(b1-2)Man(a1-6)]Man(b1-4)GlcNAc(b1-4)GlcNAc
# In short: as §1
# [38] = molecular target: Neu5Ac(a2-6)Gal(b1-4)GlcNAc(b1-2)Man(a1-3)[GlcNAc(b1-2)Man(a1-6)]Man(b1-4)GlcNAc(b1-4)GlcNAc
# In short: as §1
binder,measurement,setting,value
"AT1G80310(18) (Arabidopsis thaliana), Q0WP36 (protein) METTTTPLLPGDRSRCGWLRRRLRLKNPLSSELSGAVGDLGTFIPIVLTLTLVSNLDLSTTLIFTGFYNIATGLLFDIPMPVQPMKSIAAVAVSESPHLTPSQIAAAGASTAATLLLLGATGAMSFLYNIIPLPVVRGVQLSQGLQFAFTAIKYVRFNYDTATLKPSSSPRIWLGLDGLILALAALLFIILSTGSGNDREAEDGDLAETSSNESQSRRRRLRLLSSIPSALIVFALGLVLCFIRDPSIFKDLKFGPSKFHILRISWDDWKIGFLRAAIPQIPLSVLNSVIAVCKLSNDLFDKELSATTVSISVGVMNLIGCWFGAMPVCHGAGGLAGQYRFGARSGLSVIFLGIGKLIVGLVFGNSFVRILSQFPIGILGVLLLFAGIELAMASKDMNSKEDSFIMLVCAAVSMTGSSAALGFGCGVVLYLLLKLRTLDCSSVTLFSRSSDESQVDSEAAPRDV",glycan array binding signal (z-score),[1],-0.826
same,glycan array binding signal (z-score),[2],-0.62
same,glycan array binding signal (z-score),[3],-0.823
same,glycan array binding signal (z-score),[4],0.212
same,glycan array binding signal (z-score),[5],-0.851
same,glycan array binding signal (z-score),[6],-0.872
same,glycan array binding signal (z-score),[7],-0.869
same,glycan array binding signal (z-score),[8],0.517
same,glycan array binding signal (z-score),[9],-0.652
same,glycan array binding signal (z-score),[10],-0.434
same,glycan array binding signal (z-score),[11],-0.941
same,glycan array binding signal (z-score),[12],-1.06
same,glycan array binding signal (z-score),[13],-0.892
same,glycan array binding signal (z-score),[14],0.167
same,glycan array binding signal (z-score),[15],0.109
same,glycan array binding signal (z-score),[16],-0.507
same,glycan array binding signal (z-score),[17],1.02
same,glycan array binding signal (z-score),[18],-0.797
same,glycan array binding signal (z-score),[19],0.629
same,glycan array binding signal (z-score),[20],0.507
same,glycan array binding signal (z-score),[21],0.138
same,glycan array binding signal (z-score),[22],-0.834
same,glycan array binding signal (z-score),[23],1.19
same,glycan array binding signal (z-score),[24],-0.748
same,glycan array binding signal (z-score),[25],-0.767
same,glycan array binding signal (z-score),[26],-0.876
same,glycan array binding signal (z-score),[27],-0.643
same,glycan array binding signal (z-score),[28],-1
same,glycan array binding signal (z-score),[29],-0.959
same,glycan array binding signal (z-score),[30],-0.261
same,glycan array binding signal (z-score),[31],-0.868
same,glycan array binding signal (z-score),[32],-0.366
same,glycan array binding signal (z-score),[33],0.38
same,glycan array binding signal (z-score),[34],-0.385
same,glycan array binding signal (z-score),[35],-0.534
same,glycan array binding signal (z-score),[36],-0.94
same,glycan array binding signal (z-score),[37],-0.569
same,glycan array binding signal (z-score),[38],-0.532

# Reformatted tab-delimited: part of the list above.
binder	measurement	setting	value
AT1G80310(18) (Arabidopsis thaliana), Q0WP36 (protein) METTTTPLLPGDRSRCGWLRRRLRLKNPLSSELSGAVGDLGTFIPIVLTLTLVSNLDLSTTLIFTGFYNIATGLLFDIPMPVQPMKSIAAVAVSESPHLTPSQIAAAGASTAATLLLLGATGAMSFLYNIIPLPVVRGVQLSQGLQFAFTAIKYVRFNYDTATLKPSSSPRIWLGLDGLILALAALLFIILSTGSGNDREAEDGDLAETSSNESQSRRRRLRLLSSIPSALIVFALGLVLCFIRDPSIFKDLKFGPSKFHILRISWDDWKIGFLRAAIPQIPLSVLNSVIAVCKLSNDLFDKELSATTVSISVGVMNLIGCWFGAMPVCHGAGGLAGQYRFGARSGLSVIFLGIGKLIVGLVFGNSFVRILSQFPIGILGVLLLFAGIELAMASKDMNSKEDSFIMLVCAAVSMTGSSAALGFGCGVVLYLLLKLRTLDCSSVTLFSRSSDESQVDSEAAPRDV	glycan array binding signal (z-score)	[18]	-0.797
same	glycan array binding signal (z-score)	[19]	0.629

# From the supplement of paper PMC8728848
